Experimental data from US20230270892A1, “CHELATOR COMPOSITIONS FOR RADIOMETALS AND METHODS OF USING SAME” (TRIUMF INC., priority 2020, published 2023).

What was measured:
Type in all cases: physicochemical
[1] = ^225Ac radiolabelling of crown, crown-TATE and DOTA monitored by radioTLC; conditions: for chelator concentration at which quantitative ^225Ac labeling was achieved: 15 minutes
Description: ^225Ac labeling of crown was achieved by mixing the ligand and isotope in acetate buffers between pH 5-7 at ambient temperature. Reactions were monitored by radioTLC. TLC plates were scanned 5 hours after developing to allow the decay of short-lived isotopes, particularly ^213Bi that binds stronger with DOTA-type chelators, and for ^225Ac to reach equilibrium. Crown or Crown-TATE (3 µL, 10^-3 M aqueous unless specified), purified ^225Ac (2.5 uL in 0.05 M HNO3) and ammonium acetate buffer (20 µL, 1 M, fresh) mixed together and kept at room temperature for 30 minutes.
1-5 µL of sample was spotted on SA iTLC plate (silicic acid-embedded instant thin layer chromatography plate) and developed with ethylenediamine tetraacetic acid (EDTA) (pH 5, 0.05 M). Free Ac moves to the solvent front, and Ac labelled products stay close to the bottom of the plate. Alternatively, the TLC can also be developed on a silica plate with Al backing, using citrate buffer (pH 4, 0.4 M). The plate was counted 1 day after to allow the decay of shorter lived isotopes.
Stock solutions of crown (10^-3 M - 10^-6 M) and DOTA (10^-3 M - 10^-6 M) were prepared in water. Ligand (1 µL), buffer (1 M pH 7 NH4OH, 1 µL), water (7 µL), and ^225Ac stock (1 µL, 10-30 kBq) were mixed together. For crown, the reaction was kept at room temperature for 15 min and for DOTA, the reaction was at 90° C. for 15 min. 2-5 µL was taken for radioTLC monitoring at various time points. The sample was spotted on a silica plate with aluminium backing (10 cm x 1.5 cm) and developed with sodium citrate (0.4 M, pH 4). The plates were scanned >5 hours later when all the daughters reach secular equilibrium. Under those conditions, unchelated actinium migrates to the solvent front (Rf=1) and chelated actinium remains close baseline (Rf<0.5). n=3 for each data point.

[2] = ^177Lu labelling of crown versus DOTA
Description: Experiments were also conducted to evaluate the labelling of crown, crown-αMSH and crown-TATE with other radiometals. Results for the three constructs and a comparative chelator DOTA chelating ^177Lu are shown in FIG. 16 at various concentrations of chelator.

[3] = ^225Ac radiolabeling yield and molar activity of αMSH constructs; conditions: for Molar activity: final product, n = 5
Description: In a similar method as described above, ^225Ac -crown-αMSH was generated upon incubation of the modified peptide with ^225Ac in acetate buffer. […] When purification was required, light C18 Sep-Pak™ was used to remove free ^225Ac. Molar activity for the final product was determined to be 4.1 ± 1.9 MBq/nmol (n = 5), the highest among reported methods to date.^[20,22] Serum stability study indicated ~90% ^225Ac remain chelated over 8 days.

O=C(O)CN1CCN(CC(=O)O)CCN(CC(=O)O)CCN(CC(=O)O)CC1 [DOTA, reference compound]
chelator concentration at which quantitative ^225Ac labeling was achieved ([1]; 90° C.): > 10^-4 M | chelator concentration at which quantitative ^177Lu labelling was achieved ([2]; 90° C., 30 minutes): 10^-4 M

CCCC[C@H](NC(=O)CN1CCC(NC(=O)CN2CCOCCN(CC(=O)O)CCN(CC(=O)O)CCOCCN(CC(=O)O)CC2)CC1)C(=O)N[C@H]1CC(=O)NCCCC[C@@H](C(N)=O)NC(=O)[C@H](Cc2c[nH]c3ccccc23)NC(=O)[C@H](CCCNC(=N)N)NC(=O)[C@@H](Cc2ccccc2)NC(=O)[C@H](Cc2c[nH]cn2)NC1=O [^225Ac-crown-αMSH, metal not drawn]
radiolabeling yields with ^225Ac ([3]; acetate buffer, levels up to 6 MBq): > 98% | Molar activity [3]: 4.1 MBq/nmol | Molar activity ([3]; listed as 225Ac -crown-αMSH): 4.1 ± 1.9 MBq/nmol

O=C(O)CN1CCOCCN(CC(=O)O)CCN(CC(=O)O)CCOCCN(CC(=O)O)CC1 [crown, 2,2’,2”,2’”-(1,10-dioxa-4,7,13,16-tetraazacyclooctadecane-4,7,13,16-tetrayl)tetraacetic acid]
chelation of ^225Ac, reaction reached (radioTLC) ([1]; crown concentration of 10^-5 M, at 10 min, room temperature): > 96% | concentration as low as which a stable complex with ^225Ac forms quantitatively ([1]; room temperature and neutral pH): 10^-5 M | chelator concentration at which quantitative ^225Ac labeling was achieved ([1]; room temperature): > 10^-6 M | chelator concentration at which quantitative ^177Lu labelling was achieved ([2]; room temperature, 15 minutes): 10^-6 M
